# Measurements reported in PubChem BioAssay AID1259424 (University of Nebraska Medical Center, 2018).
# Aim: 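Find knockdowns that reproduce the expression shifts seen after KSR1 loss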 (primary screen)
# Cell system: human HCT116 colon cancer cells
# Reagent: siRNA pool against human genes, 50 nM
# Read-out: 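Log2 levels of six mRNAs (branched-DNA multiplex), adjusted by two reference genes and the non-targeting median, then scored against the average KSR1 knockdown pattern as Pearson r and euclidean distance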
# Direction: mean correlation with KSR1 profile and KSR1 correlation: higher = expression change more like KSR1 knockdown; mean distance from KSR1 profile: higher = expression change less like KSR1 knockdown
# Shown is an unselected part of about 14,000 reagents. 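Higher correlation or smaller distance means closer resemblance to KSR1 loss; control wells, including KSR1 knockdowns, recur on many plates.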 Some reagents were tested in more than one well and are listed for each. No sequences are given here. The record does not give: the time to read-out.
gene symbol,mean correlation with KSR1 profile,mean distance from KSR1 profile,"KSR1 correlation, replicate 1","KSR1 correlation, replicate 2","KSR1 correlation, replicate 3"
ATF1,0.131,2.49,0.209,0.235,0.113
SCN3A,0.0436,1.3,-0.0787,-0.0851,0.149
SARM1,-0.105,3.11,-0.0606,-0.246,0.0195
JMJD7-PLA2G4B,-0.424,2.75,-0.401,-0.57,-0.393
ATAD3B,0.393,1.8,0.303,0.295,0.403
TNFRSF18,0.0822,2.53,0.228,0.0172,0.0826
ITGB5,0.432,0.894,0.0552,0.472,0.543
PPP6R1,-0.693,2.9,-0.352,-0.868,-0.667
KATNA1,0.0596,2.37,0.00653,0.0737,0.178
ZRANB2,-0.36,2.31,-0.284,-0.214,-0.359
SMR3A,0.234,4.02,0.18,0.262,-0.0867
HAMP,-0.204,3.82,-0.205,-0.15,-0.264
CALCR,0.523,1.31,0.501,0.565,0.433
CYP1A2,-0.567,1.97,-0.466,-0.649,-0.579
PSAP,0.255,1.68,0.191,0.485,0.358
MSX2,-0.303,3.47,-0.0974,-0.218,-0.272
CRIPTO,-0.17,1.83,0.257,-0.352,-0.391
MYO18B,0.432,2.74,0.127,0.525,0.315
PRSS2,0.339,1.43,0.308,0.347,0.232
NODAL,0.763,1.84,0.826,0.748,0.53
KRAS,0.502,2.34,0.611,0.244,0.202
CETN1,0.0878,2.37,0.125,0.248,0.313
LONRF3,0.0549,1.68,0.171,0.207,-0.0583
TBC1D8,-0.616,3.48,-0.562,-0.62,-0.478
MDM4,-0.000496,1.89,-0.214,0.0135,0.053
PKD1,0.484,2.48,0.175,0.337,0.508
OR2C1,0.79,1.04,0.711,0.617,0.609
COL4A6,0.00647,1.3,0.29,-0.226,-0.217
POLR1HASP,0.263,2.1,0.0402,0.148,0.228
OR5L2,0.281,4.78,0.443,0.269,0.154
GPR68,0.708,1.77,0.658,0.743,0.723
EEF1A2,0.711,1.44,0.961,0.706,0.724
GRK4,0.33,2.8,0.281,0.432,0.276
GRK4,0.146,2.28,0.29,0.0144,-0.0928

Laid out differently: 3 of the entries above.
| gene symbol | mean correlation with KSR1 profile | mean distance from KSR1 profile | KSR1 correlation, replicate 1 | KSR1 correlation, replicate 2 | KSR1 correlation, replicate 3 |
| --- | --- | --- | --- | --- | --- |
| ZRANB2 | -0.36 | 2.31 | -0.284 | -0.214 | -0.359 |
| SMR3A | 0.234 | 4.02 | 0.18 | 0.262 | -0.0867 |
| HAMP | -0.204 | 3.82 | -0.205 | -0.15 | -0.264 |
